No constants are given. Whether binding was seen depends on the method and setting. Binding can be weak; no strength is given. Where a sequence is shown, tags or fusion partners need not be part of it.

Two molecules from doi:10.1101/2022.07.11.499617 can be followed below.

Assay [1] has as its target ERECTA cytosolic domain fused to the DNA binding domain (BD-ER_CD) (Arabidopsis thaliana). Kind of assay: two-hybrid.
Assay [2] has as its target cytosolic domain of BAK1 fused with DNA-binding domain (BD-BAK1_CD) (Arabidopsis thaliana). Kind of assay: two-hybrid.

B1: PUB31 full length fused to the activation domain (AD-PUB31) (enzyme, UniProt Q9FHN9 1-444)
chain: MPMFQPSKNGGFDGHILDLHSAVKDGVLGGGDGKFLVVVTDEKKKLDLKEMISELELPEIPSVFICPISLEPMQDPVTLCTGQTYERSNILKWFNIGHCTCPTTMQELWDDLVTPNKTLHQLIYTWFSQKYVLMKKRSEDVQGRAIEILGTLRKAKGKAKVHALSELKQVVMAHAIAKKTVVDEGGVFVISSLLSPFTSHAVGSEAIAILVNLELDSDSKAGLMQPARVSLMVDMLNDGSIETKINCARLIGRLVEEKGFRAELVSSHSLLVGLMRLVKDRRRRNGVSPALTLLKSVSVHKQVRNLLVRIGAVPQLVDVLPCLDVECLESALFVLDSLCLESEGRIALKDSVNTIPHTVRLLMKVSEKCTNYAISILWSVCKLASEECSSLAVEVGLAAKLLLVIQSGCDPALKQRSAELLKLCSLHYSDSMFISKCKLTRTIQ
For the molecule B1, the binding result in assay [1] and in assay [2] was “binds” each time.

B2: PUB30 full length fused to the activation domain (AD-PUB30) (enzyme, UniProt Q058P4 1-448)
chain: MPMFQPLKRDGLIGFEGGGDGQVLDLDTAVKDGVLGGVNGGGVGVVDEKLDLKKMIKELDLQDIPSVFICPISLEPMQDPVTLCTGQTYERLNIHKWFNLGHLTCPTTMQELWDDTVTPNKTLHHLIYTWFSQKYVLMKKRSEDVQGRAIEILGTLKKAKGQARVHALSELKQIVIAHLMARKTVVEEGGVSVISSLLGPFTSHAVGSEVVAILVSLDLDSDSKSGLMQPAKVSLIVDMLNDGSNETKINCARLIRGLVEEKGFRAELVSSHSLLVGLMRLVKDKRHRNGVSPALRLLKPISVHKQVRSLMVSIGAVPQLVDILPSLDPECLELALFVLDALCTDVEGRVAVKDSANTIPYTVRVLMRVSENCTNYALSILWSVCKLAPEECSPLAVEVGLAAKLLLVIQSGCDAALKQRSAELLKLCSLHYSDTMFISKCKLTRTIQ
B2: the binding result in assay [1] and in assay [2] was “binds” in each case.
